Test results published in publication PMC6491619, “Development and application of a high-content virion display human GPCR array” (Nature Communications, 2019).
No constants are given. Whether binding was seen depends on the method and setting. Some results given as binding are weak or reduced against the parent protein; the word gives no strength.

Protein sequences, listed by entry. Tags and fused reporters are not part of them. Lines headed by an entry give the natural chain unless they say otherwise; changes in a name come on top.
UniProt Q969F8: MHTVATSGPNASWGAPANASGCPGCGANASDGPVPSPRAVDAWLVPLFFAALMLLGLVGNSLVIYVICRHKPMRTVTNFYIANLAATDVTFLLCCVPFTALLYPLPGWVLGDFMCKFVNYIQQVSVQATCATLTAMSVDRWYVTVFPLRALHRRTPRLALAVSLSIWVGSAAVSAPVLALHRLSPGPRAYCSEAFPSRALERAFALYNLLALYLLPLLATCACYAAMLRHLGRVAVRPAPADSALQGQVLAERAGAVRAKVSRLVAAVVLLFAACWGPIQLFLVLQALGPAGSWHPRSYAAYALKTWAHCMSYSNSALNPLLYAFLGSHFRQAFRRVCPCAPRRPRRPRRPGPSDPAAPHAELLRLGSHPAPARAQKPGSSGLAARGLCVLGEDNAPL
UniProt P61278: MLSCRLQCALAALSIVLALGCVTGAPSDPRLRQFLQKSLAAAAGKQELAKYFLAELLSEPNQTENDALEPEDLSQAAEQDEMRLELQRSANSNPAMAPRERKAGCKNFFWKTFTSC

Columns and labels:
VirD-GABBR2 (human) [1] = target: T1, VirD-GABBR2 (human) (UniProt O75899); assay: fluorescent ligand binding to infected cells; Vero cells infected with HSV-GPCR virus (MOI ~10, 16 h), blocked in 3% BSA PBS; labeled SRIF-14 at 8 uM without or with cold SRIF-14 (800 uM) or cyclosomatostatin (800 uM); signals normalized to K082-infected cells; only the binder purified
T1 sequence: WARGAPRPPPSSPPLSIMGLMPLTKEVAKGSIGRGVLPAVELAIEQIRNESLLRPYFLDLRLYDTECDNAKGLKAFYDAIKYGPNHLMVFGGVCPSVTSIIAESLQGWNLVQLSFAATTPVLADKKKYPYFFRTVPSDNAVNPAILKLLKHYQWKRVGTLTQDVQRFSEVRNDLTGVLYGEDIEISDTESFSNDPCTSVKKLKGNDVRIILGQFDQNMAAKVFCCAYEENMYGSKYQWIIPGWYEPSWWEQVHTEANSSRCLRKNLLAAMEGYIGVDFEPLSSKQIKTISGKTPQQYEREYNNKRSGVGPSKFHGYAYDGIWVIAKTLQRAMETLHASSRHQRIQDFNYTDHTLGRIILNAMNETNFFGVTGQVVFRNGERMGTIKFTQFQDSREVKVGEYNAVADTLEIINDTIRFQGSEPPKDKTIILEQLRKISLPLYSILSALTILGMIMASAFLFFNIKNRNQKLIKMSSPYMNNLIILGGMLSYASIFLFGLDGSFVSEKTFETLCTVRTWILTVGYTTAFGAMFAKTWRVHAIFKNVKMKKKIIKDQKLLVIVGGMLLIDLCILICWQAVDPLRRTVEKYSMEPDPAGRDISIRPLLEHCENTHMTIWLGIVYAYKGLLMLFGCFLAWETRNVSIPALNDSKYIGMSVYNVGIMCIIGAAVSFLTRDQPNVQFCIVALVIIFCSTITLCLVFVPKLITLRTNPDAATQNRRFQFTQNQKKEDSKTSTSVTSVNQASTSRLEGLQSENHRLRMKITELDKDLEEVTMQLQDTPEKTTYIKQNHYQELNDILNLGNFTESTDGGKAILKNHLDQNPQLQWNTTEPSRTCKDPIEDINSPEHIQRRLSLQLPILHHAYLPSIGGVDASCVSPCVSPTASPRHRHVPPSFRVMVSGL

VirD-KISS1R (human) [2] = target: VirD-KISS1R (human) (UniProt Q969F8); assay: as above
VirD-NTSR1 (human) [3] = target: VirD-NTSR1 (human) (UniProt P30989); assay: as above
VirD-GABBR2 (human) [4] = target: T1, VirD-GABBR2 (human); assay: peptide or protein array; VirD-GPCR array: purified virions printed on epoxy slides, blocked with 3% BSA PBS; Cy5-Dynorphin A (8 uM) or Cy3-SRIF-14 (8 uM) in HEPES buffer for 1 h; Z-scores; only the binder purified
VirD-KISS1R (human) [5] = target: VirD-KISS1R (human) (UniProt Q969F8); assay: as above
VirD-NTSR1 (human) [6] = target: VirD-NTSR1 (human) (UniProt P30989); assay: as above

Measured: binding

Cy5-labeled SRIF-14 (from UniProt P61278 103-116) (peptide)
binds: VirD-GABBR2 (human) [1] | VirD-KISS1R (human) [2] | VirD-NTSR1 (human) [3]

Cy3-labeled SRIF-14 (from UniProt P61278 103-116) (peptide)
binds: VirD-GABBR2 (human) [4] | VirD-KISS1R (human) [5] | VirD-NTSR1 (human) [6]
